Measurements reported in the supplement of paper PMC3334620.
Over roughly 33,000 sequences, “E-score (-0.5 to 0.5)” has its median near -0.016; the highest 2% begin near 0.3. The list shows a part of the results.

Each sequence was assayed against T1, Yer184c (UniProt P39961) (assay: PBM E-score (8-mer binding enrichment) (E-score (-0.5 to 0.5)); higher = stronger / more preferred TF binding). Conditions: protein concentration: 100 nM; construct: GST-full length.
T1 sequence: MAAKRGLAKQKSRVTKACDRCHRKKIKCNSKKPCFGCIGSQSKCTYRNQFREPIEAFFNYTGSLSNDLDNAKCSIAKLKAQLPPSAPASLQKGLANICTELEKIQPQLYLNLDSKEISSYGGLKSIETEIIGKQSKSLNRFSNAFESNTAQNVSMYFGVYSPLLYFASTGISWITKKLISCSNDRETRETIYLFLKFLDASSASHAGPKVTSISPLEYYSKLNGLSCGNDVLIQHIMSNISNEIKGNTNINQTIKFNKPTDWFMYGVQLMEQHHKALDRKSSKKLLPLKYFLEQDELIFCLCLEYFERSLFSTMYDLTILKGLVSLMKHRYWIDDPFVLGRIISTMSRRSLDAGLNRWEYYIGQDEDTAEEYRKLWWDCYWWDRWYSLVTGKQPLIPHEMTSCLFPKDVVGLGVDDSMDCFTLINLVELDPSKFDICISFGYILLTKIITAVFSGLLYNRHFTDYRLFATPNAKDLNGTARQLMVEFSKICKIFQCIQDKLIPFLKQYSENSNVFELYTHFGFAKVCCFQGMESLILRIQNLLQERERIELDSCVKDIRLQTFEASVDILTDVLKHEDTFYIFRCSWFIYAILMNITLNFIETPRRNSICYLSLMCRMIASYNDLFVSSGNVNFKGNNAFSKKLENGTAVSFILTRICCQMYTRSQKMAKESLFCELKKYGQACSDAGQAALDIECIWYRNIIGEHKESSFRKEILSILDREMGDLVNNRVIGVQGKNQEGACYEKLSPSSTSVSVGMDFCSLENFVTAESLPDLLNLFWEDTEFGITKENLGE
Method: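 Universal 'all 10-mer' protein binding microarrays (Agilent AMADID 015681) probed with GST-tagged S. cerevisiae TFs (full-length or DBD) made by in vitro transcription/translation (PURExpress), about 100-200 nM. Bound TF was detected with fluorescent anti-GST. Each ungapped 8-mer (which stands for itself and its reverse complement) is scored by the PBM enrichment score (E-score), a modified Wilcoxon-Mann-Whitney statistic from -0.5 to +0.5, computed with the Universal PBM Analysis Suite. Scale: above 0.35 generally sequence-specific binding.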
ACATACAC was tested, and the “PBM E-score” value was 0.118. For AGGGACTA, the “PBM E-score” value was -0.182. For ATGGTGAC, the “PBM E-score” value was -0.171. With AATGATGG the “PBM E-score” value was 0.0279. With CAGAACTC the “PBM E-score” value was -0.0755. For AATTCCCG, the “PBM E-score” value was 0.272. CTTCATCA was tested, and the “PBM E-score” value was 0.0503. With CGATAGGC the “PBM E-score” value was -0.0653. In the case of GCGTGCGA, the “PBM E-score” value is reported as -0.0414. GTGCTGCA was tested, and the “PBM E-score” value was -0.0801. For GGAGGAAA, the “PBM E-score” value was 0.0452. CCCGGAGA was tested, and the “PBM E-score” value was 0.222. In the case of CGTGAAAA, the “PBM E-score” value is reported as 0.172. In the case of GCTGACGA, the “PBM E-score” value is reported as -0.0611. ATCAGGGC was tested, and the “PBM E-score” value was -0.202. GAAAGCGC was tested, and the “PBM E-score” value was -0.0187. In the case of GAACCTTC, the “PBM E-score” value is reported as -0.00158. With GTAAAAGA the “PBM E-score” value was 0.0635. In the case of ACCAAAGT, the “PBM E-score” value is reported as -0.0125. In the case of AACCAGTG, the “PBM E-score” value is reported as -0.251. CGAAGCAG was tested, and the “PBM E-score” value was -0.0198. For TTCCTCAA, the “PBM E-score” value was 0.0708. With ACAGCTGG the “PBM E-score” value was -0.219. For CGTGTACA, the “PBM E-score” value was 0.0108. In the case of CACTTTAA, the “PBM E-score” value is reported as 0.0546. With CCTAGACG the “PBM E-score” value was -0.0921. For CTAATTTA, the “PBM E-score” value was 0.281. CACTGCAG was tested, and the “PBM E-score” value was -0.0351. With AGATTCGC the “PBM E-score” value was 0.0489. For ATACCACG, the “PBM E-score” value was 0.191. For ATGGCGTG, the “PBM E-score” value was -0.0753. With ACCAGCTC the “PBM E-score” value was -0.141. With CGTCAACG the “PBM E-score” value was -0.0231. With ACATCGCG the “PBM E-score” value was -0.138. In the case of TAAGTTAA, the “PBM E-score” value is reported as -0.00427. In the case of GATTGTGC, the “PBM E-score” value is reported as -0.0711. CCTGCCGC was tested, and the “PBM E-score” value was -0.0625. In the case of TCGGTAAA, the “PBM E-score” value is reported as 0.296. For ATCCTTTG, the “PBM E-score” value was 0.0204. For CCGCCGCG, the “PBM E-score” value was 0.172. ACCTTTTA was tested, and the “PBM E-score” value was -0.102. For GATCGGCC, the “PBM E-score” value was 0.272. With GTATGCAC the “PBM E-score” value was -0.0367. With CACTTTTC the “PBM E-score” value was 0.0831. ATGCCCGG was tested, and the “PBM E-score” value was 0.237. For AAAATCCT, the “PBM E-score” value was 0.0606. CCTGGATA was tested, and the “PBM E-score” value was -0.227. With GAGTACTC the “PBM E-score” value was -0.0763. In the case of GCAGTGTA, the “PBM E-score” value is reported as 0.0357. For AACACTCA, the “PBM E-score” value was 0.0828. AGGAGCCA was tested, and the “PBM E-score” value was -0.154. For TGGTGGAA, the “PBM E-score” value was -0.00394. ACAGGCCG was tested, and the “PBM E-score” value was 0.0481. In the case of ACTGACGA, the “PBM E-score” value is reported as 0.00463. For AGATACTC, the “PBM E-score” value was -0.119. AGTCTCCG was tested, and the “PBM E-score” value was 0.27. AAGGACAT was tested, and the “PBM E-score” value was -0.00966. With GCTGCCAC the “PBM E-score” value was -0.0222. For GAAAAATA, the “PBM E-score” value was 0.221. With CAGATGCA the “PBM E-score” value was -0.31. AACCACGA was tested, and the “PBM E-score” value was -0.137. With CATAACCC the “PBM E-score” value was -0.158. For CTTGCAAA, the “PBM E-score” value was 0.192. GAATTGTA was tested, and the “PBM E-score” value was 0.0798. For AGAAACAA, the “PBM E-score” value was 0.209. In the case of CCGTGGCG, the “PBM E-score” value is reported as 0.0318. CATGGCGG was tested, and the “PBM E-score” value was -0.0415. With ATACAGAA the “PBM E-score” value was 0.261. CCTTAAAG was tested, and the “PBM E-score” value was -0.00178. In the case of AGCTGGTG, the “PBM E-score” value is reported as -0.0511. CATTTAGG was tested, and the “PBM E-score” value was -0.143. For GCTTCGGA, the “PBM E-score” value was 0.304. In the case of GATTATGA, the “PBM E-score” value is reported as 0.148. CAAGTTCA was tested, and the “PBM E-score” value was 0.177. With CCGTTCGA the “PBM E-score” value was 0.0966. For CGCGGCTC, the “PBM E-score” value was 0.226. CTGCAGAA was tested, and the “PBM E-score” value was 0.0889. GTGTTATA was tested, and the “PBM E-score” value was 0.239. CCAAAAAG was tested, and the “PBM E-score” value was 0.128. For ACCACGGG, the “PBM E-score” value was -0.0792. AATTTTAC was tested, and the “PBM E-score” value was 0.176. For ACATTAAG, the “PBM E-score” value was 0.132. In the case of CCCGCCGA, the “PBM E-score” value is reported as 0.193. ACCGGTTA was tested, and the “PBM E-score” value was 0.26. For GTTGGGTA, the “PBM E-score” value was -0.18. In the case of GGAGGCTA, the “PBM E-score” value is reported as -0.172.
